For some of these results: Strings that start with PEPTIDE1 are HELM notation: dots part the residues, brackets hold end groups and non-standard residues. Numbered stars: 1 amine (or outer) side, 2 acyl side, 3 side chain; on linkers, the order of the positions; unused ones are H or OH. Bridge positions count the residues as written; N and C are the ends. I, II: the chains in the order shown. X6 = CC(CNC(=O)NC(C)CNC(=O)[*:1])NC(=O)NCC(C)N[*:2]
Assay: general procedure: Fmoc solid-phase peptide synthesis; rink resin; PyBOP/DIEA
Details: whole synthesis, scale 0.1 mmol

Substance	isolated mass	isolated yield
PEPTIDE1{H.[Aib].E.G.T.F.T.S.D.V.S.S.Y.L.E.G.Q.A.A.K.E.F.I.A.W.L.V.[Au].[Au].[Au].[am]}|PEPTIDE2{[C18diacid].[gGlu].[OEG].[OEG]}$PEPTIDE1,PEPTIDE2,20:R3-4:R2$$$V2.0	1.45 mg	0.4%

Assay: general procedure: Fmoc solid-phase peptide synthesis; sieber resin; PyBOP/DIEA
Details: whole synthesis, scale 0.1 mmol

Substance	isolated mass	isolated yield
H-HGEGTFTSDVSSYLEGA^uA^uA^uEFIAWLVKGRG-NH2	10.98 mg	3.4%
H-HGEGTFTSDVA^uA^uA^uEGQAAKEFIAWLVKGRG-NH2	7.0 mg	2.2%
H-HGEGTFTSDA^uA^uA^uLEGQAAKEFIAWLVKGRG-NH2	28.4 mg	8.9%
H-HGEGTFTSDVSSYLEGQAA^uA^uA^uIAWLVKGRG-NH2	8.4 mg	2.6%
H-HGEGTFTSD^uαA^uA^uYLEGQAAKEFIAWLVKGRG-NH2	10.13 mg	3.1%
H-HGEGTFTSDVSSA^uA^uA^uQAAKEFIAWLVKGRG-NH2	11.88 mg	3.7%
H-HGEGTFTSDVSSYLE^uA^uA^uAKEFIAWLVKGRG-NH2	17.6 mg	5.3%
H-HGEGTFTSDVSSYLEGQA^uA^uA^uFIAWLVKGRG-NH2	6.0 mg	1.85%
H-HGEGTFTSDVSSYY^uE^uA^uAAKEFIAWLVKGRG-NH2	2.3 mg	0.7%
H-HGEGTFTSDVSSYLEGQAAKEFIAWLVKGRG-NH2	6.1 mg	1.8%
H-HGEGTFTSDVSA^uA^uA^uGQAAKEFIAWLVKGRG-NH2	9.3 mg	2.95%
I: AAKEFIAWLVKGRG-NH2 / II: H-HGEGTFTSDVSSY (linker I:N-II:C via X6; SMILES CC[C@H](C)[C@H](NC(=O)[C@H](Cc1ccccc1)NC(=O)[C@H](CCC(=O)O)NC(=O)[C@H](CCCCN)NC(=O)[C@H](C)NC(=O)[C@H](C)NC(=O)NCC(C)NC(=O)NCC(C)NC(=O)NCC(C)NC(=O)[C@H](Cc1ccc(O)cc1)NC(=O)[C@H](CO)NC(=O)[C@H](CO)NC(=O)[C@@H](NC(=O)[C@H](CC(=O)O)NC(=O)[C@H](CO)NC(=O)[C@@H](NC(=O)[C@H](Cc1ccccc1)NC(=O)[C@@H](NC(=O)CNC(=O)[C@H](CCC(=O)O)NC(=O)CNC(=O)[C@@H](N)Cc1c[nH]cn1)[C@@H](C)O)[C@@H](C)O)C(C)C)C(=O)N[C@@H](C)C(=O)N[C@@H](Cc1c[nH]c2ccccc12)C(=O)N[C@@H](CC(C)C)C(=O)N[C@H](C(=O)N[C@@H](CCCCN)C(=O)NCC(=O)N[C@@H](CCCNC(=N)N)C(=O)NCC(N)=O)C(C)C)	3.22 mg	1.0%
H-HGEGTFTSDVSSYLEA^uA^uA^uKEFIAWLVKGRG-NH2	10.2 mg	3.1%
H-HGEGTFTSDVSSYLA^uA^uA^uAKEFIAWLVKGRG-NH2	13.02 mg	4.0%

Assay: general procedure: Fmoc solid-phase peptide synthesis; Sieber resin; PyBOP/DIEA
Details: whole synthesis, scale 0.1 mmol

Substance	isolated mass	isolated yield
H-HGEGTFTSDVA^uY^uA^uEGQAAKEFIAWLVKGRG-NH2	2.4 mg	0.8%

Assay: general procedure: Fmoc solid-phase peptide synthesis; wang resin; PyBOP/DIEA
Details: whole synthesis, scale 0.1 mmol

Substance	isolated mass	isolated yield
semaglutide	2.2 mg	0.5%

Reference: patent publication US11285219B2 (UREKA SARL, priority 2019, dated 2022)
